Measured values published in PMC8991960 (Angewandte Chemie (International Ed. in English), 2021).
Some peptides are written in HELM: one residue between dots, names in brackets for other building blocks, links after the first $.

Experiment: general procedure: Fmoc solid-phase peptide synthesis; 2-chlorotrityl polystyrene resin (0.7 mmol g-1); COMU/OxymaPure/DIPEA; PyOxim/DIPEA extra coupling for Arg(Alloc)2
Details: whole synthesis

PEPTIDE1{R.K.K.W.F.[Trp(redBODIPY)].G}$PEPTIDE1,PEPTIDE1,1:R1-7:R2$$$V2.0
isolated mass: 4.0 mg | final LC-MS purity (HPLC-MS (diode array and ESI MS detector), scale of the general procedure 20.1 mg resin): 97% purity | isolated yield (overall, scale of the general procedure 20.1 mg resin): 22% overall yield
